{
  "source": "the supplement of paper PMC7411640",
  "test_system": "MDA-MB-468",
  "test": "phospho-S6 immunofluorescence (DAPI-normalised), per-plate z-score; higher = higher phospho-S6 signal (less pathway suppression)",
  "details": "24 h",
  "experimental": "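GPCR-targeted compound library (MedChemExpress HY-L006) tested on MDA-MB-468 PTEN-null TNBC cells in 384-well plates at 0.1, 1 or 10 uM, combined with vehicle, GDC0941 450 nM or lapatinib 1 uM, for 24 h. Phospho-S6 (S240/244) immunofluorescence normalised to DAPI and expressed as a per-plate z-score; values are the mean of biological triplicates.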",
  "key": {"[1]": {"details": "compound 0.1 µM, co-treatment: GDC0941 450 nM"}, "[2]": {"details": "compound 0.1 µM, co-treatment: lapatinib 1 uM"}, "[3]": {"details": "compound 0.1 µM, co-treatment: vehicle"}, "[4]": {"details": "compound 1 µM, co-treatment: GDC0941 450 nM"}, "[5]": {"details": "compound 1 µM, co-treatment: lapatinib 1 uM"}, "[6]": {"details": "compound 1 µM, co-treatment: vehicle"}, "[7]": {"details": "compound 10 µM, co-treatment: GDC0941 450 nM"}, "[8]": {"details": "compound 10 µM, co-treatment: lapatinib 1 uM"}, "[9]": {"details": "compound 10 µM, co-treatment: vehicle"}},
  "note": "Structures can show the parent of a compound that is named as a salt. This is one part of the list. Most values lie within the scatter of the assay; repeated measurements hardly agree.",
  "data": [
    {"compound": "COc1cccc(CCc2ccccc2OCC(CN(C)C)OC(=O)CCC(=O)O)c1", "note": "(stereo unspecified) [Sarpogrelate (hydrochloride)]", "values": [
      {"measurement": "phospho-S6 immunofluorescence (z-score)", "setting": "[1]", "value": -0.85},
      {"measurement": "phospho-S6 immunofluorescence (z-score)", "setting": "[2]", "value": 0.37},
      {"measurement": "phospho-S6 immunofluorescence (z-score)", "setting": "[3]", "value": -0.71},
      {"measurement": "phospho-S6 immunofluorescence (z-score)", "setting": "[4]", "value": -0.3},
      {"measurement": "phospho-S6 immunofluorescence (z-score)", "setting": "[5]", "value": 0.18},
      {"measurement": "phospho-S6 immunofluorescence (z-score)", "setting": "[6]", "value": -2.33},
      {"measurement": "phospho-S6 immunofluorescence (z-score)", "setting": "[7]", "value": 0.63},
      {"measurement": "phospho-S6 immunofluorescence (z-score)", "setting": "[8]", "value": -0.51},
      {"measurement": "phospho-S6 immunofluorescence (z-score)", "setting": "[9]", "value": -0.15}
    ]},
    {"compound": "CC(=O)OC(C)C[N+](C)(C)C", "note": "(stereo unspecified) [Methacholine (chloride)]", "values": [
      {"measurement": "phospho-S6 immunofluorescence (z-score)", "setting": "[1]", "value": 0.27},
      {"measurement": "phospho-S6 immunofluorescence (z-score)", "setting": "[2]", "value": 0.51},
      {"measurement": "phospho-S6 immunofluorescence (z-score)", "setting": "[3]", "value": 1.06},
      {"measurement": "phospho-S6 immunofluorescence (z-score)", "setting": "[4]", "value": -0.82},
      {"measurement": "phospho-S6 immunofluorescence (z-score)", "setting": "[5]", "value": 0.49},
      {"measurement": "phospho-S6 immunofluorescence (z-score)", "setting": "[6]", "value": 0.87},
      {"measurement": "phospho-S6 immunofluorescence (z-score)", "setting": "[7]", "value": 0.63},
      {"measurement": "phospho-S6 immunofluorescence (z-score)", "setting": "[8]", "value": 0.47},
      {"measurement": "phospho-S6 immunofluorescence (z-score)", "setting": "[9]", "value": 1}
    ]},
    {"compound": "COc1cc(C(=O)NCc2ccc(OCCN(C)C)cc2)cc(OC)c1OC", "note": "[Trimethobenzamide hydrochloride]", "values": [
      {"measurement": "phospho-S6 immunofluorescence (z-score)", "setting": "[1]", "value": 0.07},
      {"measurement": "phospho-S6 immunofluorescence (z-score)", "setting": "[2]", "value": -0.16},
      {"measurement": "phospho-S6 immunofluorescence (z-score)", "setting": "[3]", "value": -0.46},
      {"measurement": "phospho-S6 immunofluorescence (z-score)", "setting": "[4]", "value": 0.13},
      {"measurement": "phospho-S6 immunofluorescence (z-score)", "setting": "[5]", "value": -0.34},
      {"measurement": "phospho-S6 immunofluorescence (z-score)", "setting": "[6]", "value": 0.09},
      {"measurement": "phospho-S6 immunofluorescence (z-score)", "setting": "[7]", "value": 0.29},
      {"measurement": "phospho-S6 immunofluorescence (z-score)", "setting": "[8]", "value": 1.09},
      {"measurement": "phospho-S6 immunofluorescence (z-score)", "setting": "[9]", "value": 0.51}
    ]},
    {"compound": "O=c1[nH]c2ccccc2n1CCN1CCN(c2cccc(C(F)(F)F)c2)CC1", "note": "[Flibanserin]", "values": [
      {"measurement": "phospho-S6 immunofluorescence (z-score)", "setting": "[1]", "value": 0.34},
      {"measurement": "phospho-S6 immunofluorescence (z-score)", "setting": "[2]", "value": -0.18},
      {"measurement": "phospho-S6 immunofluorescence (z-score)", "setting": "[3]", "value": 0.66},
      {"measurement": "phospho-S6 immunofluorescence (z-score)", "setting": "[4]", "value": 0.7},
      {"measurement": "phospho-S6 immunofluorescence (z-score)", "setting": "[5]", "value": 0.53},
      {"measurement": "phospho-S6 immunofluorescence (z-score)", "setting": "[6]", "value": 0.29},
      {"measurement": "phospho-S6 immunofluorescence (z-score)", "setting": "[7]", "value": -0.19},
      {"measurement": "phospho-S6 immunofluorescence (z-score)", "setting": "[8]", "value": -0.04},
      {"measurement": "phospho-S6 immunofluorescence (z-score)", "setting": "[9]", "value": 0.48}
    ]}
  ]
}
